PubChem BioAssay AID1671195 | Yale University – 2021

Test: 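Genes whose knockdown alters LDL uptake in liver cancer cells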 (primary screen)
Cell system: human Huh7 hepatoma cells
Reagents: siRNA pool against human genes, 18 nM
Duration: about 2 to 2.5 days of knockdown, then 8 h LDL uptake
Treatment: DiI-labelled LDL at 30 µg/ml for 8 h, in lipoprotein-deficient serum medium
Measured: 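Fluorescent LDL signal imaged in cells, scaled to the plate median, robust z-score for each replicate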
Reading the numbers: robust z-score: higher = more LDL uptake after knockdown
Rule for the call: 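a gene counts as active if at least two replicate z-scores exceed ±2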
Here is an unselected part of about 22,000 deposited reagents. Over the whole deposit, about 1,510 (6.9%) were called active. 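Active includes knockdowns raising or lowering LDL uptake; positive z-scores mean more uptake, negative mean less.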 Unmarked entries are inactive. Reagents against one gene are numbered here.

Gene	pool no.	robust z-score, replicate 1	robust z-score, replicate 2	robust z-score, replicate 3
RTN4 (GeneID 57142)	1	0.172	-0.62	-0.368
IRF5 (GeneID 3663)	1	0.259	2.02	0.804
ZNF195 (GeneID 7748)	1	0.154	0.64	0.339
SYNGAP1 (GeneID 8831)	1	-0.647	-0.282	-0.944
UBA5 (GeneID 79876)	1	2.97 (active)	1.24	3.61
MRTO4 (GeneID 51154)	1	-1.21	0.914	0.273
FGF23 (GeneID 8074)	1	1.09	0.798	1.38
RFK (GeneID 55312)	1	1.07	0.0726	1.74
TMEM125 (GeneID 128218)	1	4.36 (active)	3.36	3.75
MEPE (GeneID 56955)	1	1.48	0.449	-0.033
NLRC5 (GeneID 84166)	1	0.237	0.0803	0.813
ERMARD (GeneID 55780)	1	-0.353 (active)	2.7	2.78
MED22 (GeneID 6837)	1	0.552	0.398	0.901
DNAJB7 (GeneID 150353)	1	1.48	1.3	0.979
ALDH8A1 (GeneID 64577)	1	-0.89	-0.975	-0.989
FAM86EP (GeneID 348926)	1	-1.12	-0.777	-1.14
AGR2 (GeneID 10551)	1	0.548	0.705	0.702
PRSS45P (GeneID 377047)	1	-1.06	-0.243	-1.39
SLC16A11 (GeneID 162515)	1	1.08	1.68	1.59
UPK1B (GeneID 7348)	1	0.726	0.0961	-0.622
KIAA2012 (GeneID 100652824)	1	1.27	1.29	1.27
KIAA2012 (GeneID 100652824)	2	2.21	0.398	0.753
SPEF1 (GeneID 25876)	1	-0.073	-0.212	-0.269
HAL (GeneID 3034)	1	-1.88	-1.35	-1.63
PRKRIP1 (GeneID 79706)	1	-0.592	-1.15	-0.853
HORMAD2 (GeneID 150280)	1	-1.33	-2.08	-1.16
NIF3L1 (GeneID 60491)	1	1.55	1.45	1.14
PARVB (GeneID 29780)	1	-0.156	-0.529	-1.03

Entries above marked active, once more:
Gene	pool no.	robust z-score, replicate 1	robust z-score, replicate 2	robust z-score, replicate 3
UBA5 (GeneID 79876)	1	2.97 (active)	1.24	3.61
TMEM125 (GeneID 128218)	1	4.36 (active)	3.36	3.75
ERMARD (GeneID 55780)	1	-0.353 (active)	2.7	2.78
